Source: patent publication US20080201871A1, “ANTIMICROBIAL COLORANTS” (The Regents of the University of California, priority 2003, published 2008)

System: E. coli
Test: Antimicrobial efficacy (log reduction) at fixed concentration and contact time
Format: cell-based, Escherichia coli
Settings: E. coli 10^7~10^8 CFU/ml; 10 ppm
Experimental: Antimicrobial activity of the agents in aqueous solution was evaluated by a minimum inhibitory concentration (MIC) procedure (Kaminski, J. J., Hyycke, N. M. et al., Pharm. Sci., 65(12):1737 (1976)). MIC refers to the lowest concentration of biocides that prohibit population and reproduction of microorganisms. In this method, 1 mL of an aqueous suspension containing 10^6˜10^7 colony-forming units (CFU)/mL of Staphylococcus aureus (S. aureus, ATCC #12600, Gram-positive) or Escherichia coli (E. coli, K-12, Gram-negative) were placed into 9 mL aqueous solutions containing different concentrations of the agents for a contact time of 24 hours. After the contact, a 100 μL aliquot of the resultant solution was serially diluted by sterilized distilled water to 10^1, 10^2, 10^3, 10^4 and 10^5. 100 μL of the last four dilutions were placed onto a nutrient agar plate and incubated at 37° C. for 24 hours. The same procedure was applied to a distilled water solution without the antimicrobial agents as a control. […]
To better study the biocidal rate of these colorants, the antimicrobial efficacy of the colorants in terms of log reduction is assessed against E. Coli under different contact time ranging from 15 minutes to 24 hours. […]

CCCCCCCCCCCCCCCC[n+]1ccccc1.[Cl-] [CPC, N-cetylpyridinium chloride, reference compound]
Antimicrobial Efficacy (log reduction): 0 log reduction
